Literature values in US10918741B2, “PSMA-targeting imaging agents” (THE CLEVELAND CLINIC FOUNDATION, priority 2014, dated 2021).

Test system: malignant tumors
Details: 10 malignant tumors, intravenous ICG; cited from earlier work

Structure (SMILES): CC1(C)C(/C=C/C=C/C=C/C=C2\N(CCCCS(=O)(=O)O)c3ccc4ccccc4c3C2(C)C)=[N+](CCCCS(=O)(=O)[O-])c2ccc3ccccc3c21 [ICG, indocyanine green]
- malignant tumors hypofluorescent in comparison with the normal parenchyma: 70%
- malignant tumors isofluorescent in comparison with the normal parenchyma: 30%
